Library screening results

Protein sequences, listed by entry. Tags and fused reporters are not part of them.
UniProt E9BF75, entry or part of it: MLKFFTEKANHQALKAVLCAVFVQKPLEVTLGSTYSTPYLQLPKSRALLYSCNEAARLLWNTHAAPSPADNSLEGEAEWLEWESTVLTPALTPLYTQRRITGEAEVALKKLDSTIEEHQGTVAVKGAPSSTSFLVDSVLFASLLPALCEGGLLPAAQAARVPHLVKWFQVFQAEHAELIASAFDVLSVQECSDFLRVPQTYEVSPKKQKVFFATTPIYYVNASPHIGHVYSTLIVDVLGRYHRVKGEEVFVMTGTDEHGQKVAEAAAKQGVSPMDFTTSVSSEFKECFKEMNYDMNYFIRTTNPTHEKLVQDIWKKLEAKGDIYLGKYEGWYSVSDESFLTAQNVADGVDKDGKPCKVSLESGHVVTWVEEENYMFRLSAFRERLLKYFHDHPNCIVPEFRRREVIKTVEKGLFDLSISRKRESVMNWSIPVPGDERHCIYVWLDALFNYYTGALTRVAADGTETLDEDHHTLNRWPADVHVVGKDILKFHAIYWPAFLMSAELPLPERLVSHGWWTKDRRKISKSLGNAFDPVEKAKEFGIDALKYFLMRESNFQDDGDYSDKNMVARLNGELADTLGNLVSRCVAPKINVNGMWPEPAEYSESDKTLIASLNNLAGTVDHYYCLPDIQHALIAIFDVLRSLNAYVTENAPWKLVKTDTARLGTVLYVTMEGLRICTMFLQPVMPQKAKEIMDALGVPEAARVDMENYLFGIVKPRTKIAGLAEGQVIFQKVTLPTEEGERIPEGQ

Data taken from ChEMBL document CHEMBL3988442, “University of Dundee, Small-Polar-MMV Screening Library” (2021).

LdMetRS: 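Primary screen of methionyl-tRNA synthetase; the read-out is not stated. Target: Methionyl-tRNA synthetase (putative), Leishmania donovani (UniProt E9BF75). The test concentration is not given. Values are per cent inhibition. Of about 68,000 compounds tested this way, about 24 (0.035%) reached 50% or more in at least one test.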
Mtb heat-shock: 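Assay on Mycobacterium tuberculosis, filed only as a heat shock assay from Cornell; the read-out is not stated. The concentration is filed as 10 mM, unlikely as a test dose, so the dose is not known. The record gives no direction; compounds that gave an IC50 in retests scored well above the rest, so higher reads as stronger inhibition. About 69,000 compounds were tested under these conditions; 1.4% (about 930) showed 50% or more at least once.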

All values are in %.
How 0% and 100% were set is not recorded. Most values in the screen are low, and negative values occur.
This is an unselected part of the compounds tested.
A dash means the value is not listed here; it may have been measured.

compound	LdMetRS	Mtb heat-shock
COCCCN1Cc2cccc(NC(=O)C(C)(C)C)c2C1	-4.244	-7.842
[H][C@]12CC[C@]([H])(CN(S(C)(=O)=O)C1)N(CCC(=O)NCc1ccco1)C2	-	-31.63
O=C(c1ccoc1)N(Cc1ccncc1)C1CC1	8.01	12.45
CC(=O)N1CCCC(c2cnc(-c3c(C)nn(C)c3C)cn2)C1 (stereo unspecified)	11.5	-198.3
COc1ccc(C2(NC(=O)c3ccc(=O)n(C)n3)CCCC2)cc1	13.5	11.99
O=C(NCC(O)CO)Nc1cc(Br)ccc1F (stereo unspecified)	11.19	-0.1546
O=C(O)c1cn(CC2CCCN(c3ccc4ccccc4n3)C2)nn1 (stereo unspecified)	10.64	6.844
COCCn1c(CN2CCCCO2)cnc1S(=O)(=O)CC1CCCCC1	13.9	-7.226
CCn1nnc2c1C(COC)CN(Cc1ccsc1)C2.O=C(O)C(F)(F)F (stereo unspecified)	-	-1.931
O=C(NCCc1ccccn1)C1(n2cnnn2)CCCCC1	6.997	-1.374
CCn1nc(C)c(CNCCn2cc(C)cn2)c1C	-6.211	10.96
Cn1cc(-c2cnc(N3CCOCC3)nc2)cc1C(=O)N1CCCC1	12.97	1.441
Cc1ccc(F)c2c1CCCN2Cc1cc(=O)n(C)c(=O)n1C	22.64	12.04
c1ccc2c(c1)CCC21CN(CCc2ccncc2)CCO1 (stereo unspecified)	8.333	-13.22
COCC1CCCCN1C(=O)c1cc(Cn2ccc3ccccc32)[nH]n1 (stereo unspecified)	19.89	18.06
CC(=O)Nc1ccc(SCCCC(=O)NCC2CCCO2)nn1 (stereo unspecified)	13.76	7.362
CS(=O)(=O)c1ccc(-c2cnc(C3CCCN3)cn2)cc1.Cl (stereo unspecified)	-	2.157
CC(C)N(C)Cc1nnc2n1CCCN(C(=O)C1CCCO1)C2 (stereo unspecified)	15.58	-7.389
Cc1nc(N2CCCC2)ncc1-c1cc(O)nc(N2CCCCC2)n1	1.759	-8.456
CC(C)(C)n1cc(C(=O)N2CCN(Cc3ccco3)CC2)cn1	21.31	12.06
N#Cc1cccc(NC2CC(=O)N(Cc3ccccc3Cl)C2)n1 (stereo unspecified)	2.847	8.125
O=C(N[C@H]1CN(c2ccncc2)C[C@@H]1C1CC1)C1CCOCC1	7.444	8.533
Cc1ccc(CN2CCCN(Cc3cscn3)CC2)cc1	13.4	30.66
O=C(NCCn1ccnc1)N1CCN(c2nccs2)CC1	-1.045	10.53
Cc1cnc(CN(C)C2CCN(Cc3nc4ccccc4o3)C2)o1 (stereo unspecified)	11.27	-16.63
CCc1nnc(C2Cc3ccccc3CN2Cc2cc(C)on2)o1 (stereo unspecified)	4.839	-17.93
Cl.Cn1nc(C2CCCN(Cc3cc(F)ccc3F)C2)c2nccnc21 (stereo unspecified)	-	-2.188
COc1ccc(CN2CCC3(CC(Nc4ccncn4)C3)C2)c(OC)c1 (stereo unspecified)	17.83	-6.13
COC1CCN(CCNC(=O)C2CCCCC2)CC1	21.47	4.096
CN(C)c1cccc(C(=O)Nc2cnn(CC(N)=O)c2)c1	18.54	5.865
COCCC(=O)N1CCC2(CCCN(Cc3cc(OC)ccc3F)C2)C1 (stereo unspecified)	6.452	-20.44
CCOCC1c2c(cnn2CC2CC2)CCN1C(=O)c1ccncn1.O=C(O)C(F)(F)F (stereo unspecified)	-	-9.901
Cn1cc(CN2C[C@@H]3COC[C@]3(COc3ccc(C#N)cn3)C2)cn1	14.5	-
CC(=O)N1C[C@@H]2CN(S(=O)(=O)C3CC3)CCO[C@@H]2C1	16.54	-
Cc1cc(C)n(CC(=O)NC2CCCCNC2=O)n1 (stereo unspecified)	2.899	14.52
CCOCC1CN(c2ccncn2)Cc2cnn(CC)c21 (stereo unspecified)	10.46	-
CC[C@@H](C)[C@H](NC(=O)NC1CCS(=O)(=O)C1)C(=O)NCc1ccncc1 (stereo partly specified)	8.182	-2.942
O=C(O)C(F)(F)F.[H][C@@]12C[C@H](C(=O)Nc3cccnc3)CN(C(=O)c3ccsc3)[C@]1([H])CCO2	-	-2.464
[H][C@]12C[C@H](C(=O)NC)N(C)[C@@]1([H])CN(C(=O)c1cncc(C)c1)C2	-	15.25
COc1ccc(C2=NOC(CO)C2)cc1 (stereo unspecified)	6.516	3.259
COc1ccc(Nc2nc3c(C)nn(C)c3c(=O)n2C)cc1	-2.233	13.23
CCn1cc(NC(=O)NCCN2CCCc3ccccc32)cn1	18.21	-0.1769
Cc1cc(CN2C[C@@H]3COC[C@]3(CNC(=O)c3ccno3)C2)no1	8.418	-
C=Cn1ncc(CN2C[C@@H]3CCCN3C[C@@H]2CCSC)c1C	5.65	-
COCC(=O)N1CCCC1c1ccnc(Nc2cnccn2)n1 (stereo unspecified)	18.15	-1.39
Cn1cccc1C(=O)NC(C)(C(N)=O)c1cccc(C(F)(F)F)c1 (stereo unspecified)	11.38	-1.799
Cc1cncc(C(=O)N2CCNCC2C(=O)NCc2ccncc2)c1 (stereo unspecified)	12.89	-9.786
COC(=O)c1ccc(N2CCN(C(=O)c3cc(C)no3)C(C)C2)cc1 (stereo unspecified)	19.55	-21.77
Cn1c(CC2CCS(=O)(=O)C2)nnc1SCCOc1ccccc1F (stereo unspecified)	6.32	-4.732
Cc1nn(C)c(C)c1C(C)NC(=O)Nc1cccnc1N1CCCC1 (stereo unspecified)	7.843	20.89
O=C(c1ccno1)N1CC[C@@H]2O[C@@H](COCCN3CCCC3)CC[C@@H]21	12.46	-
[H][C@]12CCCN(S(=O)(=O)c3ccc(OC)cc3)[C@@]1([H])CN(C(=O)C1CC1)C2	-	-24.79
Cc1cc(NCc2cccc(C#N)c2)ccc1Br	19.3	-0.9935
Cc1ccc(N2CCCc3sc(C(=O)NCc4ccc(C)o4)nc32)nn1	9.774	14.16
CCCc1nc2c(c(C)c(C)n2Cc2ccccn2)c(N)c1CC	10.19	-0.4166
O=C(O)CN1CCC2(CCc3ccccc32)CC1	8.889	-45.78
[H][C@@]12CS(=O)(=O)C[C@]1([H])N(C(=O)COc1ccccc1)CCN2CC=C(C)C	-	-8.948
CC(C)N1CCC(CNC(=O)COc2ccc(F)cc2F)C1 (stereo unspecified)	16.15	13.25
Cc1oc(C)c(C(=O)N2CCCN(Cc3cscn3)CC2)c1C	9.722	-12.41
Cc1cc(C)c(C#N)c(NCCSc2nncn2C)n1	21.59	14.02
CC(=O)NCCCC(=O)N1CCC(Sc2cccc(C)c2)CC1	11.26	-6.947
CC(C)CCN1CCN(c2ncnc3nc(N)ccc23)CC1	6.183	-21.88
CS(=O)(=O)Cc1ccc(CNC(=O)N2CCC(C(N)=O)C2)cc1 (stereo unspecified)	23.94	-14.9
C[C@]1(O)CN(Cc2ccc(C(=O)O)cc2)CC[C@@H]1Oc1cccc(F)c1	4	-12.18
O=C(O)C(F)(F)F.O=C(O)C(F)(F)F.c1cncc(N2CCOCC3(CN(Cc4cccs4)CCO3)C2)c1 (stereo unspecified)	-	-29.69

3 of the entries, repeated:

| compound | LdMetRS | Mtb heat-shock |
|---|---|---|
| `Cc1cc(C)n(CC(=O)NC2CCCCNC2=O)n1` (stereo unspecified) | 2.899 | 14.52 |
| `COCCCN1Cc2cccc(NC(=O)C(C)(C)C)c2C1` | -4.244 | -7.842 |
| `Cn1c(CC2CCS(=O)(=O)C2)nnc1SCCOc1ccccc1F` (stereo unspecified) | 6.32 | -4.732 |